{"source": "patent US20260125468A1", "binders": {"B1": {"name": "PR006364, anti-CD3 A1-HCAb hIgG1(C220S, AAG) (antibody, V domains shown)", "VH": "RIRLVESGGGLVQAGGSLRLSCAASGRTSGIPAMAWFRQAPGKEREFVAMAWSGGGTIYGDSVKNRFTISRDNTQNTIFLQMNSLKPEDTALYYCAAGRSTSNRADQYNYWGQGTQVTVSS"}}, "molecular_target": "human CD3e&d-llamaFc", "test": "ELISA, plate coated with human CD3e&d-llamaFc at 1 µg/mL, anti-human IgG Fc-HRP [A]", "note": "No constants are given. Whether binding was seen depends on the method and setting. Binding can be weak; no strength is given."}
{"binder": "B1", "values": [{"measurement": "binding", "result": "binds"}]}
